PMC9138245
These are yes or no findings as the source states them, for the method shown. In cells and extracts the contact can be indirect. Some binding calls cover weakened binding; strength is not graded here.

The chains behind the UniProt entries cited, without tags or fusion partners.
UniProt P15311: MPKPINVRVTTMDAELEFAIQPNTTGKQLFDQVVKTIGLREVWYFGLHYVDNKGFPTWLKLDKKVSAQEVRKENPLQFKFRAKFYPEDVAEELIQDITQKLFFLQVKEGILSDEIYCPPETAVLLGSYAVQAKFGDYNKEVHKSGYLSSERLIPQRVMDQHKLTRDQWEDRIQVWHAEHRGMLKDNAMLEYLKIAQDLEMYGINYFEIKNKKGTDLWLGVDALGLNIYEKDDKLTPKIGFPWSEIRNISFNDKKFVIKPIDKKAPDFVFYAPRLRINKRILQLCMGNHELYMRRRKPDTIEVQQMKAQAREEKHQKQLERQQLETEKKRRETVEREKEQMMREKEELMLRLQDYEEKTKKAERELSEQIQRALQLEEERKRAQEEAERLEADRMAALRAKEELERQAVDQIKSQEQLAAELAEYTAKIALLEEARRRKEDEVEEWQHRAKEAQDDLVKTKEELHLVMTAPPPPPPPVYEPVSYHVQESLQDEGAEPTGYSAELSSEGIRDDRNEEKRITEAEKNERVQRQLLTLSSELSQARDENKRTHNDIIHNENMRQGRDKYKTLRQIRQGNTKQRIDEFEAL

Target: phosphorylated ezrin (Thr567) (human (endogenous in dHL60)) (UniProt P15311)
Test: co-IP; lysate (RIPA) of BifA-treated dHL60 cells; immunoprecipitation with anti-p-ezrin (T567) monoclonal antibody; blot for Dbl and p-ezrin

B1: Dbl (guanine nucleotide exchange factor) (protein, UniProt P10911 1-925)
chain: MAEANPRRGKMRFRRNAASFPGNLHLVLVLRPTSFLQRTFTDIGFWFSQEDFMLKLPVVMLSSVSDLLTYIDDKQLTPELGGTLQYCHSEWIIFRNAIENFALTVKEMAQMLQSFGTELAETELPDDIPSIEEILAIRAERYHLLKNDITAVTKEGKILLTNLEVPDTEGAVSSRLECHRQISGDWQTINKLLTQVHDMETAFDGFWEKHQLKMEQYLQLWKFEQDFQQLVTEVEFLLNQQAELADVTGTIAQVKQKIKKLENLDENSQELLSKAQFVILHGHKLAANHHYALDLICQRCNELRYLSDILVNEIKAKRIQLSRTFKMHKLLQQARQCCDEGECLLANQEIDKFQSKEDAQKALQDIENFLEMALPFINYEPETLQYEFDVILSPELKVQMKTIQLKLENIRSIFENQQAGFRNLADKHVRPIQFVVPTPENLVTSGTPFFSSKQGKKTWRQNQSNLKIEVVPDCQEKRSSGPSSSLDNGNSLDVLKNHVLNELIQTERVYVRELYTVLLGYRAEMDNPEMFDLMPPLLRNKKDILFGNMAEIYEFHNDIFLSSLENCAHAPERVGPCFLERKDDFQMYAKYCQNKPRSETIWRKYSECAFFQECQRKLKHRLRLDSYLLKPVQRITKYQLLLKELLKYSKDCEGSALLKKALDAMLDLLKSVNDSMHQIAINGYIGNLNELGKMIMQGGFSVWIGHKKGATKMKDLARFKPMQRHLFLYEKAIVFCKRRVESGEGSDRYPSYSFKHCWKMDEVGITEYVKGDNRKFEIWYGEKEEVYIVQASNVDVKMTWLKEIRNILLKQQELLTVKKRKQQDQLTERDKFQISLQQNDEKQQGAFISTEETELEHTSTVVEVCEAIASVQAEANTVWTEASQSAEISEEPAEWSSNYFYPTYDENEEENRPLMRPVSEMALLY
- binding: binds
